Assay results taken from patent US20010053351A1, “Inhibition of GSK-3 beta” (priority 1999, published 2001).
At least one structure is not confirmed: it was looked up by name or label, or the drawing left a doubt.

What was measured:
NF-κB = NF-κB activation by electrophoretic mobility shift assay (EMSA) in wild-type EF cells treated with TNF-α; assay type: cell-based, mouse; settings: lithium 30 mM, 4 hr, TNF-α 100 ng/ml, 30 min
[1] = system: wild-type and GSK-3β-heterozygous cells; test: Cell death / viability (trypan blue) of wild-type and GSK-3β heterozygous embryonic fibroblast cell lines; assay type: cell-based, mouse; settings: 20 mM lithium, cycloheximide 0.25 μg/ml
other protein kinases = settings: cited from earlier work

Compound: [Li] [lithium]
- NF-κB activity (κB-binding) after lithium preincubation (NF-κB): sensitive to preincubation with lithium
- cell viability with lithium, TNF-α and cycloheximide together ([1]; 10 ng/ml TNF-α, 20 mM potassium as control): statistically significant decreases in cell viability
- cell viability with lithium and cycloheximide without TNF-α [1]: unaffected
- inhibition of other protein kinases (other protein kinases): not a general inhibitor of other protein kinases
